Measurements reported in PubChem BioAssay AID493014 (National Center for Advancing Translational Sciences (NCATS), 2011).
The list shows a part of the results. Shown are side measurements of this screen, not its main read-out; they come without a call. Compounds called inactive in the main read-out are mostly missing here. The note in brackets gives the kind of curve behind each potency; many fits are weak.

Test: qHTS Assay to Find Inhibitors of Chronic Active B-Cell Receptor Signaling
Conditions: ABC-DLBCL IkBa-CBG/CBR reporter, luminescence ratio (green luciferase fused to IkBa over red control in TMD8 lymphoma cells), 4 h
How it was run: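 TMD8 ABC-DLBCL cells carrying doxycycline-inducible green luciferase fused to IkappaBalpha plus unfused red luciferase were exposed to compounds (up to 46 uM) for 4 hrs at 37C. Activity came from the overlap-corrected green/red luminescence ratio.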

[1] = measured here: CBR red luminescence, cell number
[2] = measured here: IkBa-CBG green luminescence

SMILES | AC50 [1] | AC50 [2]
Cc1cc(=O)[nH]c2nnc(SCc3cccc(F)c3)n12 | 12.6 µM [rising, single point] | 
Cc1ccc(NC(=O)COc2ccccc2)c(NC(=O)c2ccco2)c1 | 11.2 µM [rising, partial curve, poor fit] | 
CC(C)CN(c1ccccc1)S(=O)(=O)c1nnc(NC(=O)c2ccco2)s1 | 1.26 µM [falling, full curve, poor fit] | 
O=C1c2[nH]nc(-c3ccccc3O)c2C(c2cccc(Cl)c2)N1CC1CCCO1 (stereo not drawn) | 29.1 µM [falling, single point] | 
O=C(Nc1ccccc1)Nc1cccc2nsnc12 | 11.2 µM [falling, partial curve] | 
NS(=O)(=O)c1cccc(NC(=O)Nc2ccccc2)c1 | 7.08 µM [falling, partial curve] | 
COc1ccc(-c2ccc(NC(=O)c3ccco3)cc2)nn1 | 3.66 µM [falling, full curve] | 
O=C1Nc2ccccc2/C1=C/c1cccnc1 | 11.2 µM [falling, partial curve, poor fit] | 
CCOc1ccc(Sc2cc(C(=O)NCCc3ccc(OC)c(OC)c3)c3ccccc3n2)cc1 | 5.01 µM [rising, single point] | 
CCOC(=O)c1ccc(N2C(=O)c3n[nH]c(C)c3C2c2ccc(OC)c(OC)c2)cc1 (stereo not drawn) | 29.1 µM [falling, partial curve, poor fit] | 
COc1ccc([N+](=O)[O-])cc1Nc1c2ccccc2nc2ccccc12 | 17.8 µM [rising, single point] | 22.4 µM [falling, single point]
O=C1CCC(=O)N1CCCCCc1nc(-c2ccccc2)no1 | 20.6 µM [rising, single point] | 
CCN(CC)C(=O)COc1ccc(/C=C(\C#N)S(=O)(=O)c2ccccc2)cc1OC | 35.5 µM [falling, single point] | 
CC(=O)N[C@H]1C[C@@H]1c1ccccc1 | 32.6 µM [falling, single point] | 
NC(=O)NC(c1ccccc1)c1ccccc1F (stereo not drawn) | 29.1 µM [rising, single point] | 
CCOc1cccc(/C=N/NC(=O)c2cccnc2)c1O | 7.94 µM [falling, partial curve] | 
O=C(OCCOc1ccc(Br)cc1)c1ccc(Cl)c(S(=O)(=O)N2CCOCC2)c1 | 32.6 µM [falling, single point] | 
CCN(C(=O)c1cnc(NC(C)C)cc1C(F)(F)F)c1ccc(Cl)cc1Cl | 1.78 µM [rising, partial curve, poor fit] | 5.62 µM [falling, partial curve]
Cc1ccccc1NC(=O)c1cc2c(C)nc3ccccc3c2o1 | 35.5 µM [rising, partial curve, poor fit] | 
Cc1cccc(-c2cc3nc4c(c(NCc5ccco5)n3n2)CCCC4)c1 | 0.398 µM [falling, full curve] | 
CCCc1cc(=O)n2[nH]c(NC(=O)c3ccco3)nc2n1 | 10 µM [falling, partial curve, poor fit] | 

For convenience, some entries already given:
SMILES | AC50 [1] | AC50 [2]
Cc1cccc(-c2cc3nc4c(c(NCc5ccco5)n3n2)CCCC4)c1 | 0.398 µM [falling, full curve] | 
CCCc1cc(=O)n2[nH]c(NC(=O)c3ccco3)nc2n1 | 10 µM [falling, partial curve, poor fit] | 

Additional compounds

SMILES | AC50 [1] | AC50 [2]
O=C(N/N=C/c1ccccn1)c1ccncc1 | 10 µM [falling, partial curve, poor fit] | 
O=C(O)C1CCCCC1C(=O)NCc1ccccc1 (stereo not drawn) | 4.61 µM [rising, full curve] | 
CCNc1c(NS(=O)(=O)c2ccc(Br)s2)c(=O)oc2ccccc12 | 10 µM [falling, partial curve] | 
CC1=C(C(=O)Nc2ccccc2)C(c2ccccc2[N+](=O)[O-])NC(=O)N1 (stereo not drawn) | 20 µM [falling, partial curve, poor fit] | 
CCOC(=O)C1CCN(C(=O)COc2ccc(Br)cc2)CC1 | 3.66 µM [falling, full curve] | 
COc1ccc(-c2nc(NC(=O)C3CC(=O)N(Cc4ccco4)C3)sc2C)cc1 (stereo not drawn) | 9.2 µM [falling, partial curve] | 
O=C(COc1ccc2ccccc2c1Br)Nc1cccnc1 | 5.62 µM [rising, single point] | 
COc1cccc(NC(=O)c2cccc(C)c2[N+](=O)[O-])c1 | 7.08 µM [falling, partial curve, poor fit] | 
Cc1onc(-c2ccccc2)c1C(=O)Nc1cccc2nsnc12 | 2.59 µM [falling, single point] | 
Cc1ccccc1-c1noc(N)c1C#N | 11.6 µM [falling, partial curve] | 
O=C(O)c1cccc(S(=O)(=O)Nc2ccccc2Cl)c1 | 4.11 µM [falling, partial curve, poor fit] | 
O=C(NCCNS(=O)(=O)c1ccc(Cl)cc1)c1cc(OCC(F)(F)F)ccc1OCC(F)(F)F | 28.2 µM [rising, single point] | 
COc1ccc(S(=O)(=O)N2CCC(C(=O)Nc3nccs3)CC2)cc1 | 3.55 µM [rising, full curve, poor fit] | 
CCC(=O)N(NC1=NS(=O)(=O)c2ccccc21)S(=O)(=O)c1ccc(C)cc1 | 5.01 µM [falling, full curve, poor fit] | 
COCCN1CCc2[nH]c(=S)[nH]c(=O)c2C1 | 14.6 µM [falling, partial curve, poor fit] | 
O=S(=O)(c1ccccc1)N(CC(O)Cn1c2ccccc2c2ccccc21)c1ccccc1 (stereo not drawn) | 7.94 µM [falling, partial curve, poor fit] | 
Cn1c2c(c(=O)[nH]c1=O)C(c1ccc(O)cc1)C1=C(N2)c2ccccc2C1=O (stereo not drawn) | 12.6 µM [falling, partial curve] | 
COc1ccc(OCC(=O)Nc2ccc(N3CCN(C(=O)c4ccccc4)CC3)c(Cl)c2)cc1 | 0.316 µM [falling, full curve, poor fit] | 
CCC(C)NCCC(=O)Nc1ccc(Cl)c(S(=O)(=O)Nc2ccc(Cl)cc2)c1 (stereo not drawn) | 17.8 µM [falling, single point] | 
CC(C)(C)Nc1nc2cc([N+](=O)[O-])ccc2o1 | 3.55 µM [rising, full curve, poor fit] | 

Compounds shown so far with a cyano group, in the order listed:
SMILES | AC50 [1] | AC50 [2]
CCN(CC)C(=O)COc1ccc(/C=C(\C#N)S(=O)(=O)c2ccccc2)cc1OC | 35.5 µM [falling, single point] | 
Cc1ccccc1-c1noc(N)c1C#N | 11.6 µM [falling, partial curve] | 
